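Plate-reader measure of the Venus reporter marking one vaccinia stage in infected cells (the cell line is not named here); read time unknown. The test concentration is not given here. Percent change in Venus reporter signal; lower (more negative) values mean stronger inhibition of that viral stage.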

Values are in %. How 0% and 100% were set is not given here. Common to all entries: measured here: Venus reporter, other viral stage. This is a side read-out of the assay, for part of the compounds, not drawn at random.

CCNC(=O)C[C@H]1CC[C@H]2[C@@H](COC[C@@H](O)CN2C(=O)Nc2ccc(C(F)(F)F)cc2)O1 read activity change (Venus) -33.96%.
C[C@H](CO)N1C[C@H](C)[C@@H](CN(C)C(=O)[C@@H](Cc2ccccc2)N(C)C)OCc2ccccc2-c2ccccc2C1=O read activity change (Venus) -26.29%.
C[C@@H]1CN([C@H](C)CO)C(=O)c2c(c3ccccc3n2C)-c2ccccc2CO[C@@H]1CN(C)S(=O)(=O)c1cccc(F)c1 read activity change (Venus) -51.49%.
Cc1ccc(S(=O)(=O)N(C)C[C@H]2Oc3cc(C#CC4CCCC4)ccc3S(=O)(=O)N([C@@H](C)CO)C[C@H]2C)cc1 read activity change (Venus) -45.86%.
COc1ccccc1NC(=O)N1CC(=O)N2[C@H](CO)[C@@H](c3ccc(C#Cc4ccc(F)cc4)cc3)[C@@H]2C1 read activity change (Venus) -42.47%.
COc1ccccc1S(=O)(=O)N(C)C[C@H]1Oc2cc(C#CCC(C)C)ccc2S(=O)(=O)N([C@@H](C)CO)C[C@H]1C read activity change (Venus) -43.61%.
COc1cccc(-c2ccc3c(c2)O[C@H](CN(C)C(=O)C2CCC2)[C@@H](C)CN([C@@H](C)CO)S3(=O)=O)c1 read activity change (Venus) -31.87%.
C[C@@H]1CN([C@H](C)CO)S(=O)(=O)c2ccc(C3=CCCCC3)cc2O[C@@H]1CN(C)Cc1cccnc1 read activity change (Venus) -46.73%.
C[C@@H]1CN([C@H](C)CO)C(=O)Cc2cc(NC(=O)CCCCCC(=O)Nc3ccccc3N)ccc2O[C@@H]1CN(C)Cc1ccc(-c2ccccc2)cc1 read activity change (Venus) -40.31%.
C[C@@H]1CN([C@@H](C)CO)S(=O)(=O)c2ccc(C#Cc3ccccc3)cc2O[C@H]1CN(C)C(=O)Cc1ccccn1 read activity change (Venus) -25.11%.
Cc1ccc(S(=O)(=O)N(C)C[C@@H]2OCCCC[C@@H](C)Oc3ccc(NC(=O)CCC(F)(F)F)cc3C(=O)N([C@H](C)CO)C[C@H]2C)cc1 read activity change (Venus) -23.93%.
C[C@@H]1CCCCO[C@H](CN(C)Cc2ccc(Cl)c(Cl)c2)[C@H](C)CN([C@@H](C)CO)C(=O)c2cc(NC(=O)Nc3ccc4c(c3)OCO4)ccc2O1 read activity change (Venus) -30.44%.
O=C(Nc1ccc(F)cc1)N1CC(=O)N2[C@H](CO)[C@H](c3ccc(C#Cc4ccc(F)cc4)cc3)[C@H]2C1 read activity change (Venus) -54.44%.
CCN(C[C@@H]1[C@@H](c2ccc(C3=CCCCC3)cc2)[C@@H](CO)N1CC1CC1)C(C)=O read activity change (Venus) -37.96%.
CCCC#Cc1ccc2c(c1)O[C@H](CN(C)C(=O)c1ccccc1F)[C@H](C)CN([C@@H](C)CO)S2(=O)=O read activity change (Venus) -53.67%.
C[C@@H]1CN([C@@H](C)CO)S(=O)(=O)c2ccc(C#CCC3CCCC3)cc2O[C@H]1CN(C)C(=O)CN(C)C read activity change (Venus) -56.22%.
C[C@H]1CN([C@@H](C)CO)C(=O)c2c(c3ccccc3n2C)-c2ccccc2CO[C@@H]1CN(C)Cc1ccc(O)cc1 read activity change (Venus) -36.45%.
C[C@@H]1CCCCO[C@H](CN(C)Cc2ccccc2)[C@@H](C)CN([C@@H](C)CO)C(=O)c2cc(NC(=O)Nc3ccc(F)cc3)ccc2O1 read activity change (Venus) -66.48%.
O=C(Nc1cccc(F)c1)N1CCCCN2[C@@H](CO)[C@@H](c3ccc(C#Cc4cccnc4)cc3)[C@@H]2C1 read activity change (Venus) -54.18%.

Once more, the final 2:

structure,activity change (Venus) (%)
C[C@@H]1CCCCO[C@H](CN(C)Cc2ccccc2)[C@@H](C)CN([C@@H](C)CO)C(=O)c2cc(NC(=O)Nc3ccc(F)cc3)ccc2O1,-66.48
O=C(Nc1cccc(F)c1)N1CCCCN2[C@@H](CO)[C@@H](c3ccc(C#Cc4cccnc4)cc3)[C@@H]2C1,-54.18

The results are deposited in PubChem (AID1053133; Broad Institute, 2014).